{"sequences": {"note": "Amino acid sequences for entries named in this document (tags omitted).", "UniProt P41231": "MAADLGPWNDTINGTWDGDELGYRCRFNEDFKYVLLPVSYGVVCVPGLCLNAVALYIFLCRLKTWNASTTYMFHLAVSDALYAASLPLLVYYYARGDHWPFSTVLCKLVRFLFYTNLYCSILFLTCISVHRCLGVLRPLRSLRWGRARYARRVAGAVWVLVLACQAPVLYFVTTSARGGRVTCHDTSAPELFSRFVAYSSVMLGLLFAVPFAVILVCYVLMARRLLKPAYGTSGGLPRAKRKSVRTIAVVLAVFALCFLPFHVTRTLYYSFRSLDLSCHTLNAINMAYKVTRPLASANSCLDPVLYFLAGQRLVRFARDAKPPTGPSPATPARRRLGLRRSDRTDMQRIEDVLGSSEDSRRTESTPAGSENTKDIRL"}, "source": "paper PMC8533726", "molecular_target": "purinergic receptor Y2 (P2Y2) (human (endogenous in AsPC-1)) (UniProt P41231)", "assay": "qPAINT (quantitative DNA-PAINT single-molecule super-resolution microscopy); fixed, permeabilised AsPC-1 cells labelled with DNA-coupled anti-P2Y2 antibody; TIRF; DBSCAN clusters of localisations, copy number per cluster from dark times (qi1 0.012 Hz); control cells, cells treated with 100 uM ATP (agonist) or 5 uM AR-C 118925XX (antagonist) for 1 h", "note": "No constants are given. Whether binding was seen depends on the method and setting. Some results given as binding are weak or reduced against the parent protein; the word gives no strength.", "data": [{"substance": "purinergic receptor Y2 (P2Y2) (from UniProt P41231 1-377)", "values": [{"measurement": "binding", "value": "binds"}]}]}
